Some of the results follow.
compound: C#Cc1cccc(Nc2ncnc3cc(OCCOC)c(OCCOC)cc23)c1 [erlotinib]; assay: log2 fold change, soluble protein after heating vs DMSO (PISA); higher = thermal stabilisation; K562 lysate, 10 uM; active = over 0.2 and 3.5 SD of the protein, either way, in both replicates (recomputed)
Outline: (§1)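 Values give the log-two fold change in thermal stability against solvent controls, from duplicates. Crude K562 extract at 1 mg/mL protein, made by dounce homogenisation in PBS pH 7.4 with 1 mM MgCl2, was treated with 10 μM compound for 30 min. After 3 min heating across 48°C-58°C, aliquots were pooled, adjusted to 0.5% NP-40 at 4°C and centrifuged at 21,000xg for 90 min. The supernatant was measured by TMTpro 16plex LC-MS/MS with channel sums equalised.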

Amino acid sequences for entries named in this document (tags omitted). A change or cut given only in a name is not applied to a line headed by its entry.
UniProt Q8WY36: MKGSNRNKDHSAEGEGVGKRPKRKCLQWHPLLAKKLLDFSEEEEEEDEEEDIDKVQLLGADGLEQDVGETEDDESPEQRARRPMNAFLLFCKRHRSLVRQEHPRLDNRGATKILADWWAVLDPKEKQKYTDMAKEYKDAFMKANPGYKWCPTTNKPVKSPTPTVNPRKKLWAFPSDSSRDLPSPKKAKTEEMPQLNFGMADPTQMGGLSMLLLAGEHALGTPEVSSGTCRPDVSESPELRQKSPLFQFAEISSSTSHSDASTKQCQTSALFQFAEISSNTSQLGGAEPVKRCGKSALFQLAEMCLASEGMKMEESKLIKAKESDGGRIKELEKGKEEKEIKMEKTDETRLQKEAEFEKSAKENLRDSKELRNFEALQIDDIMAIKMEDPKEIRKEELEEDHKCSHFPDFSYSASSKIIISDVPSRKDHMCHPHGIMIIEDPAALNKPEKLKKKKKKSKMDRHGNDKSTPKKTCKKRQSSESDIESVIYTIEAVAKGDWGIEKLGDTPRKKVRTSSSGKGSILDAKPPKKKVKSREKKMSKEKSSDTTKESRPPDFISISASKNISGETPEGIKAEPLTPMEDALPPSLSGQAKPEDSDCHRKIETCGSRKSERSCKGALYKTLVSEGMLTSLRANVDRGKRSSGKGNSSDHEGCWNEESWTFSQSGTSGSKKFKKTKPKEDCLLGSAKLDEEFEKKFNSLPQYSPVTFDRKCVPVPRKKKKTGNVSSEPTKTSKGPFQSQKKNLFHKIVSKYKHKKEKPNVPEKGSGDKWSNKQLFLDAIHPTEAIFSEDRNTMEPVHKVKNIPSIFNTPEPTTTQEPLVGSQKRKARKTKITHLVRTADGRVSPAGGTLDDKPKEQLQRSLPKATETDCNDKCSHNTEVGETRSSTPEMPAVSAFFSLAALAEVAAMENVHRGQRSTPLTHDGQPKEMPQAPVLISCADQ
UniProt Q8N9N5: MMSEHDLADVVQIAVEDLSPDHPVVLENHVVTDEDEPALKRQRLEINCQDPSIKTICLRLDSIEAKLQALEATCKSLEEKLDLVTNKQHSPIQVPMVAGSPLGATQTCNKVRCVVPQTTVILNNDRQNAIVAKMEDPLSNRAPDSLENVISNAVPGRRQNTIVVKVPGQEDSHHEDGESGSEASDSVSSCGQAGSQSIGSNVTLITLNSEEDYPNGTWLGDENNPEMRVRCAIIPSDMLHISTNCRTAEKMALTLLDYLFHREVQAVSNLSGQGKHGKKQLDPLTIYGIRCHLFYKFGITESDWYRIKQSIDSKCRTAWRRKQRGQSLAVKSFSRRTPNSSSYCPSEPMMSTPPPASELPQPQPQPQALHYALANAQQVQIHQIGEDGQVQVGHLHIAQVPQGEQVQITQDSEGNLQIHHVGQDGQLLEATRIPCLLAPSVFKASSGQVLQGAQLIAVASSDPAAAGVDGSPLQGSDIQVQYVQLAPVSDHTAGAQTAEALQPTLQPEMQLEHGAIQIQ
UniProt Q9NWD9: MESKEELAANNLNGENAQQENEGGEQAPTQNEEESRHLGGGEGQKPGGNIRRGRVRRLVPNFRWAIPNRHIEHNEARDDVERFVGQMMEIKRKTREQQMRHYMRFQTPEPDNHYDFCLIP
UniProt F5GXF5: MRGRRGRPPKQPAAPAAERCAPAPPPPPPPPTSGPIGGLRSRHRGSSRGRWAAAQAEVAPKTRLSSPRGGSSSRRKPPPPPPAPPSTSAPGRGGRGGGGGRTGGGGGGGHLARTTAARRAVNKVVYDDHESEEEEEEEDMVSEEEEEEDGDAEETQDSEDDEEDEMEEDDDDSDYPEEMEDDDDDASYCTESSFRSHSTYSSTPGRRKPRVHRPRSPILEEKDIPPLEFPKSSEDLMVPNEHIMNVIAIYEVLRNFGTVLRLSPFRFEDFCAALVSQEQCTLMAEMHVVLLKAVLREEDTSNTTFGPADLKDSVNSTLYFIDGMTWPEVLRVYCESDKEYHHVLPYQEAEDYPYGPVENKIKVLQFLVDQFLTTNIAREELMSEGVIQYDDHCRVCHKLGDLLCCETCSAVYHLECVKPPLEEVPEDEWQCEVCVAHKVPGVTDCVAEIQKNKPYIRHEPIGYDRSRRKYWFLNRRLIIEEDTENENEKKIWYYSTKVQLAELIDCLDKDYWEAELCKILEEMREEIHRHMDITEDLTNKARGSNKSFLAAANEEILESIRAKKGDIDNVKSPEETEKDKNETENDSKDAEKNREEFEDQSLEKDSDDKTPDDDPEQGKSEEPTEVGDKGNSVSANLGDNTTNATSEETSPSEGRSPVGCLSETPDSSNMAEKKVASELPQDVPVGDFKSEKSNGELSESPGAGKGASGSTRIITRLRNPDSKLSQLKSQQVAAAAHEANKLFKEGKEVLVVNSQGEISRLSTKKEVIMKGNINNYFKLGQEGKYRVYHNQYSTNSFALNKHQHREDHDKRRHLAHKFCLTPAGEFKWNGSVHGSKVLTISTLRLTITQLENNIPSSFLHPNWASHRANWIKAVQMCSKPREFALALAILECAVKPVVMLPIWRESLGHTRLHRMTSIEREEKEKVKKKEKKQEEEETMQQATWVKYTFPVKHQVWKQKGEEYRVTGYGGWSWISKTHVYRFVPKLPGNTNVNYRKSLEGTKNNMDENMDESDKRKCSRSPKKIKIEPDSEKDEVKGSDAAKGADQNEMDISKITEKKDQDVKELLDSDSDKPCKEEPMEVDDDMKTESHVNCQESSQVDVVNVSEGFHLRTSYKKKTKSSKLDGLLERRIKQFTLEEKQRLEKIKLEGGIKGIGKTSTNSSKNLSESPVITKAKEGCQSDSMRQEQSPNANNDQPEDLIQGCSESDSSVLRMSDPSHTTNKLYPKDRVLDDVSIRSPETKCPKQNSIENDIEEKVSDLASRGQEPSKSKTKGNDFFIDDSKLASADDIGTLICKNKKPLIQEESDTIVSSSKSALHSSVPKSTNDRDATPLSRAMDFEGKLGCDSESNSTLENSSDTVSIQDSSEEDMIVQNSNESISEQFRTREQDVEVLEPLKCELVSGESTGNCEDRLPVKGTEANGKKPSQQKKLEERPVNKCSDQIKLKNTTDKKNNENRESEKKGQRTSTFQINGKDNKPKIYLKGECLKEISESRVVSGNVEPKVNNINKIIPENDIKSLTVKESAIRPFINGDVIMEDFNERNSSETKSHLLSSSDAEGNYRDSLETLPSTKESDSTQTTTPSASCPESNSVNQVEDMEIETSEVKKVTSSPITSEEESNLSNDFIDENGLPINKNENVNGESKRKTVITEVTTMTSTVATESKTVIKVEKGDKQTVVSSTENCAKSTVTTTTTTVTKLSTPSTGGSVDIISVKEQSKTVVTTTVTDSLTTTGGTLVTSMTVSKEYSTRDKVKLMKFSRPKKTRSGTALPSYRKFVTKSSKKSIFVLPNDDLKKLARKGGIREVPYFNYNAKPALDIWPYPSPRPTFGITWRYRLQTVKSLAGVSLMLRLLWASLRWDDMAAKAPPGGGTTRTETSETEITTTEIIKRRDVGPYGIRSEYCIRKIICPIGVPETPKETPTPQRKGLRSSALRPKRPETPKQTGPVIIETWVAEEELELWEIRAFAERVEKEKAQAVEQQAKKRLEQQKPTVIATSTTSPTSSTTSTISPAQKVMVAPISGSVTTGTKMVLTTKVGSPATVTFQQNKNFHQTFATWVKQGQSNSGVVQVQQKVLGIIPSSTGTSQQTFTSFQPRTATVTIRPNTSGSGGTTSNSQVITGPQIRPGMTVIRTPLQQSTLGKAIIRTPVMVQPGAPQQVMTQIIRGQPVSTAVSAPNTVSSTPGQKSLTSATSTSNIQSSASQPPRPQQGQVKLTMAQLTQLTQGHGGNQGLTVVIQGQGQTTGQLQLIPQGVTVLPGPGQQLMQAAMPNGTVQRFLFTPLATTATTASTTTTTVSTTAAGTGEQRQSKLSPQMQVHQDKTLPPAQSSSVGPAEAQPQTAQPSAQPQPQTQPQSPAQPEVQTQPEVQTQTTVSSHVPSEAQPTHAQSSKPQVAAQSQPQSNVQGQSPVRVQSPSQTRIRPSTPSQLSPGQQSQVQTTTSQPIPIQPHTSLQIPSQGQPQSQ
UniProt O60513: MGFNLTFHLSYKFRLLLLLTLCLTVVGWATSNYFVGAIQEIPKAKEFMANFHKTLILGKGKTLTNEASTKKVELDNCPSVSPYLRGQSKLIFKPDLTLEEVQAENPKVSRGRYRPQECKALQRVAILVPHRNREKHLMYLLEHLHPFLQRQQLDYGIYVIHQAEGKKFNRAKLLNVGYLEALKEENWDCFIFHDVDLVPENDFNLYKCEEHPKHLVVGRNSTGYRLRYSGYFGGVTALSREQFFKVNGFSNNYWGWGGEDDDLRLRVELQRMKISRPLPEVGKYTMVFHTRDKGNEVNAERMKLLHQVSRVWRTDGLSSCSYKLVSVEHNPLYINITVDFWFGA
UniProt Q9BXY8: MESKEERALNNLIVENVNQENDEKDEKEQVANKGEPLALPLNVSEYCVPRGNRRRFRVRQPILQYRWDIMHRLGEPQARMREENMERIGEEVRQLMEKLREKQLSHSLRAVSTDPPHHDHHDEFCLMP
UniProt O43521, whole entry, looked up: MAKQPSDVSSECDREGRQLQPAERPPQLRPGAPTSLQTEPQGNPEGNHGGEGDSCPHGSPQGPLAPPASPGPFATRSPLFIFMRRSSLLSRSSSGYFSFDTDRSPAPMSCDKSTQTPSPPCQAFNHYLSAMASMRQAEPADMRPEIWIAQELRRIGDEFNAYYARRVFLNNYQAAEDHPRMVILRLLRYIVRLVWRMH
UniProt Q4VC05, whole entry, looked up: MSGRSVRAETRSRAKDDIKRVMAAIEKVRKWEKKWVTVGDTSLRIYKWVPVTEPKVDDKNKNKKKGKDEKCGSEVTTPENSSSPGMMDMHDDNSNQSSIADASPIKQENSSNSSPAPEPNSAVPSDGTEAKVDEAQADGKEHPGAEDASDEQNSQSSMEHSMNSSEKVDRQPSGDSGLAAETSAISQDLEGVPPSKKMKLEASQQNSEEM
UniProt Q8TBE0: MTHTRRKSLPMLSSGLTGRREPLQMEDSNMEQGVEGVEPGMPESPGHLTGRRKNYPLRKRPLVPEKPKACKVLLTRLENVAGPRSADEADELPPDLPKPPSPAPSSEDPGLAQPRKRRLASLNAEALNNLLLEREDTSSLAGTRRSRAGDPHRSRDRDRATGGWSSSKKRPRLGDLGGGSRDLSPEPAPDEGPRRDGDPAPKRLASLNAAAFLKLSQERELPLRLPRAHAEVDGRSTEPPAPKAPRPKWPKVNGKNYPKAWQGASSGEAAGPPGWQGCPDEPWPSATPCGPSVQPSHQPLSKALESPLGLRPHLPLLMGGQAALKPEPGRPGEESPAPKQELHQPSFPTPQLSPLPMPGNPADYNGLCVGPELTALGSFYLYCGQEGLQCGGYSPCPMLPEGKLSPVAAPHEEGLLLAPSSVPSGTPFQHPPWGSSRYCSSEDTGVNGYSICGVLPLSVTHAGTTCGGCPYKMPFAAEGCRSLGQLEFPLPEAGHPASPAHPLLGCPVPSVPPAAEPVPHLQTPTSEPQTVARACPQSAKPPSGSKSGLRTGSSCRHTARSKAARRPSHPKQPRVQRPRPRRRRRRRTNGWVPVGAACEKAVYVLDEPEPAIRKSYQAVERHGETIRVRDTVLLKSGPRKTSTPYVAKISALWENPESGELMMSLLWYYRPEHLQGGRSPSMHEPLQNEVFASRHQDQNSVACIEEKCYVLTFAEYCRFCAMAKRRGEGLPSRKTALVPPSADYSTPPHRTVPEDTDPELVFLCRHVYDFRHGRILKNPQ
UniProt P10415, whole entry, looked up: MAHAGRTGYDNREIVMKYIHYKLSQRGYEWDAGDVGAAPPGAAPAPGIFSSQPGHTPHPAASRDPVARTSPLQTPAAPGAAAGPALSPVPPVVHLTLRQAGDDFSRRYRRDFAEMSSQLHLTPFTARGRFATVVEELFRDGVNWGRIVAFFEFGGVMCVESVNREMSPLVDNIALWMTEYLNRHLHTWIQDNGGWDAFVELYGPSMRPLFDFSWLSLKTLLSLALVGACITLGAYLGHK
UniProt O75363: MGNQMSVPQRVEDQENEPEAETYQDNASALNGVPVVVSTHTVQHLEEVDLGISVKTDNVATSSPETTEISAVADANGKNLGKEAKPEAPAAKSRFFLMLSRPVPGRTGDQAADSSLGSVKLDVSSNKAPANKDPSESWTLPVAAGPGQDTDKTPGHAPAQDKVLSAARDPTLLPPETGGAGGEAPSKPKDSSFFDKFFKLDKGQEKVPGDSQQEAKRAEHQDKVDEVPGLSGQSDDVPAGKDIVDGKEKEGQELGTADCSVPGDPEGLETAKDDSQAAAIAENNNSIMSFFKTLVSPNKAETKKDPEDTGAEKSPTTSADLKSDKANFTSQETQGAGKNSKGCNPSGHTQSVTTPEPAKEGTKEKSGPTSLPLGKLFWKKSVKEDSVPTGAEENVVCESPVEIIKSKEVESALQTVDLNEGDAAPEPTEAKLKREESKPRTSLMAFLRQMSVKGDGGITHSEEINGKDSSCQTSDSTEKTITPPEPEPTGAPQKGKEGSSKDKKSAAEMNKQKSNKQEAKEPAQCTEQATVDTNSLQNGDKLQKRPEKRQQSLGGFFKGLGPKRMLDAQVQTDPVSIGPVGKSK

log2 fold change, inactive:
BHLHE40 (UniProt O14503) -0.002
BBX (UniProt Q8WY36) 0.016
BTBD9 (UniProt Q96Q07) 0.072
BANP isoform 7 (UniProt Q8N9N5) 0.189
BTG3 isoform 2 (UniProt Q14201) 0.116
BEX4 (UniProt Q9NWD9) -0.006
BPTF (UniProt F5GXF5) -0.079
BTBD2 (UniProt Q9BX70) -0.079
B4GALT4 (UniProt O60513) -0.081

compound: C/C(=N\NC(=O)C1=CC(=CC=C1)S(=O)(=O)N2CCOCC2)/C3=C(C=CC(=C3)Cl)O; assay: as above
Outline: as §1

log2 fold change, inactive:
BRAF, A0A2R8Y8E0 -0.005
BRMS1L (UniProt Q5PSV4) -0.001
BCAP31, A0A2R8Y5M6 0.07
BEX2 isoform 2 (UniProt Q9BXY8) 0.166
BCL2L11 (UniProt O43521) -0.036

compound: C1=CC(=CC=C1C2=NC3=C(N2)C=C(C=C3)C(=O)N)OC4=CC=C(C=C4)Cl; assay: as above
Outline: as §1

log2 fold change, inactive:
BHLHE40 (UniProt O14503) 0.099
BBX (UniProt Q8WY36) 0.029
BTBD9 (UniProt Q96Q07) 0.068
BANP isoform 7 (UniProt Q8N9N5) 0
BTG3 isoform 2 (UniProt Q14201) 0.189
BEX4 (UniProt Q9NWD9) 0.015
BPTF (UniProt F5GXF5) 0.087
BTBD2 (UniProt Q9BX70) 0.195
B4GALT4 (UniProt O60513) -0.099

compound: C1=CC2=C(C=CC(=C2)/C=C\3/C(=O)NC(=NCC4=CC=CS4)S3)N=C1; assay: as above
Outline: as §1

log2 fold change, inactive:
BRAF, A0A2R8Y8E0 0.001
BRMS1L (UniProt Q5PSV4) -0.122
BCAP31, A0A2R8Y5M6 -0.212
BEX2 isoform 2 (UniProt Q9BXY8) -0.096
BCL2L11 (UniProt O43521) -0.079

compound: C1=CC2=NC=CN=C2C=C1/C=C/3\C(=O)NC(=O)S3; assay: as above
Outline: as §1

log2 fold change, inactive:
BCL7A (UniProt Q4VC05) -0.054
BTBD10 isoform 2 (UniProt Q9BSF8) 0.108
BNIP2 (UniProt H7C096) -0.074
BCL2L11 (UniProt O43521) -0.1
BAHD1 (UniProt Q8TBE0) 0.103
BCL2 (UniProt P10415) -0.067
BCAS1 isoform 2 (UniProt O75363) -0.044

From the supplement of paper PMC10849652
